Results as given in publication PMC11773488.
Results are given in words; binding and its absence hold for the method and conditions named. Binding seen in cells or lysates may run through a third protein. Some results given as binding are weak or reduced against the parent protein; the word gives no strength.

Chains of the proteins cited; added tags and fusions are not shown.
UniProt P21462: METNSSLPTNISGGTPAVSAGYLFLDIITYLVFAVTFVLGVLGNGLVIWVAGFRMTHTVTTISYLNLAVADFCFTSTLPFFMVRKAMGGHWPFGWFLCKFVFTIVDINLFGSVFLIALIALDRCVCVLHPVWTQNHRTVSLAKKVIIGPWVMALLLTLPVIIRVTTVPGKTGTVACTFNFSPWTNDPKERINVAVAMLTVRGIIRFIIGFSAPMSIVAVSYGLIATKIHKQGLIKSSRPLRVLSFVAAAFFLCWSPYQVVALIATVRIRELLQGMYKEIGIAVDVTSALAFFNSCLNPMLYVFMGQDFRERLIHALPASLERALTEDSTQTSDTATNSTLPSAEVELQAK
UniProt P49407: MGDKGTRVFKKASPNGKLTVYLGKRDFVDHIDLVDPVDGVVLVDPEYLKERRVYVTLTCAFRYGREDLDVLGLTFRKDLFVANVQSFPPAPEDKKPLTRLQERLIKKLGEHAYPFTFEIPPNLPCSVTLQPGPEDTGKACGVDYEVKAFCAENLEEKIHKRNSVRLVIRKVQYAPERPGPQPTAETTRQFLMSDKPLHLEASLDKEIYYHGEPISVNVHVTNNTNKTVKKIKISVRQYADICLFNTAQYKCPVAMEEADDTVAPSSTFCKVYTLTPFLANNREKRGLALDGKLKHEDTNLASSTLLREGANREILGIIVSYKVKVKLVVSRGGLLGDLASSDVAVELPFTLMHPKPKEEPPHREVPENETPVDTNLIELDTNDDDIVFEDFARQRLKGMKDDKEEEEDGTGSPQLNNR
UniProt P32121: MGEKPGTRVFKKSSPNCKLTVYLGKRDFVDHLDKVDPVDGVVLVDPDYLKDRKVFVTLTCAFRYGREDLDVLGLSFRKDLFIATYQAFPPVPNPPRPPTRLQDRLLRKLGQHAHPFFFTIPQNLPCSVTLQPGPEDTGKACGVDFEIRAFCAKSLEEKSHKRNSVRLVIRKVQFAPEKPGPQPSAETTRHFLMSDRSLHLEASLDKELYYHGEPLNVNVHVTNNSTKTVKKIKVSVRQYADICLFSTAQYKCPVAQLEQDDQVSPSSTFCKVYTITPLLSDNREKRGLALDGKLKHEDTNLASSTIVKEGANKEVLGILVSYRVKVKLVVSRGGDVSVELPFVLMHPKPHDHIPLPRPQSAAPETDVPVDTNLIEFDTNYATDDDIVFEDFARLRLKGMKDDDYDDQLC

Target: N-terminal FLAG-tagged human formyl-peptide receptor 1 fused C-terminally to RLuc8 (FPR1-RLuc8) (human) (UniProt P21462)
Assay: FRET or BRET; BRET of FPR1-RLuc8 with Venus-β-arrestin in control and GRK-edited HEK293 cells, with and without re-expressed GRKs (Suppl. Fig. S3, A-E); WKYMVm

| binding | Substance |
| --- | --- |
| binds | β-arrestin 1 fused to Venus fluorescent protein (from UniProt P49407 1-418) |
| binds | β-arrestin 2 fused to Venus fluorescent protein (from UniProt P32121 1-409) |
